Reference: the supplement of paper PMC12595434, “Development of retinoid nuclear receptor pathway antagonists through targeting aldehyde dehydrogenase 1A3” (iScience, 2025)
This is one part of the list. This is a noisy data set.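 Tm was set to 64 °C where no melting was found, and many curves are irregular.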

By UniProt entry, the sequences of proteins in these tests, tags left out. Where a name states a change or a piece, a line headed by the entry shows the natural chain unless it says otherwise.
UniProt P49815: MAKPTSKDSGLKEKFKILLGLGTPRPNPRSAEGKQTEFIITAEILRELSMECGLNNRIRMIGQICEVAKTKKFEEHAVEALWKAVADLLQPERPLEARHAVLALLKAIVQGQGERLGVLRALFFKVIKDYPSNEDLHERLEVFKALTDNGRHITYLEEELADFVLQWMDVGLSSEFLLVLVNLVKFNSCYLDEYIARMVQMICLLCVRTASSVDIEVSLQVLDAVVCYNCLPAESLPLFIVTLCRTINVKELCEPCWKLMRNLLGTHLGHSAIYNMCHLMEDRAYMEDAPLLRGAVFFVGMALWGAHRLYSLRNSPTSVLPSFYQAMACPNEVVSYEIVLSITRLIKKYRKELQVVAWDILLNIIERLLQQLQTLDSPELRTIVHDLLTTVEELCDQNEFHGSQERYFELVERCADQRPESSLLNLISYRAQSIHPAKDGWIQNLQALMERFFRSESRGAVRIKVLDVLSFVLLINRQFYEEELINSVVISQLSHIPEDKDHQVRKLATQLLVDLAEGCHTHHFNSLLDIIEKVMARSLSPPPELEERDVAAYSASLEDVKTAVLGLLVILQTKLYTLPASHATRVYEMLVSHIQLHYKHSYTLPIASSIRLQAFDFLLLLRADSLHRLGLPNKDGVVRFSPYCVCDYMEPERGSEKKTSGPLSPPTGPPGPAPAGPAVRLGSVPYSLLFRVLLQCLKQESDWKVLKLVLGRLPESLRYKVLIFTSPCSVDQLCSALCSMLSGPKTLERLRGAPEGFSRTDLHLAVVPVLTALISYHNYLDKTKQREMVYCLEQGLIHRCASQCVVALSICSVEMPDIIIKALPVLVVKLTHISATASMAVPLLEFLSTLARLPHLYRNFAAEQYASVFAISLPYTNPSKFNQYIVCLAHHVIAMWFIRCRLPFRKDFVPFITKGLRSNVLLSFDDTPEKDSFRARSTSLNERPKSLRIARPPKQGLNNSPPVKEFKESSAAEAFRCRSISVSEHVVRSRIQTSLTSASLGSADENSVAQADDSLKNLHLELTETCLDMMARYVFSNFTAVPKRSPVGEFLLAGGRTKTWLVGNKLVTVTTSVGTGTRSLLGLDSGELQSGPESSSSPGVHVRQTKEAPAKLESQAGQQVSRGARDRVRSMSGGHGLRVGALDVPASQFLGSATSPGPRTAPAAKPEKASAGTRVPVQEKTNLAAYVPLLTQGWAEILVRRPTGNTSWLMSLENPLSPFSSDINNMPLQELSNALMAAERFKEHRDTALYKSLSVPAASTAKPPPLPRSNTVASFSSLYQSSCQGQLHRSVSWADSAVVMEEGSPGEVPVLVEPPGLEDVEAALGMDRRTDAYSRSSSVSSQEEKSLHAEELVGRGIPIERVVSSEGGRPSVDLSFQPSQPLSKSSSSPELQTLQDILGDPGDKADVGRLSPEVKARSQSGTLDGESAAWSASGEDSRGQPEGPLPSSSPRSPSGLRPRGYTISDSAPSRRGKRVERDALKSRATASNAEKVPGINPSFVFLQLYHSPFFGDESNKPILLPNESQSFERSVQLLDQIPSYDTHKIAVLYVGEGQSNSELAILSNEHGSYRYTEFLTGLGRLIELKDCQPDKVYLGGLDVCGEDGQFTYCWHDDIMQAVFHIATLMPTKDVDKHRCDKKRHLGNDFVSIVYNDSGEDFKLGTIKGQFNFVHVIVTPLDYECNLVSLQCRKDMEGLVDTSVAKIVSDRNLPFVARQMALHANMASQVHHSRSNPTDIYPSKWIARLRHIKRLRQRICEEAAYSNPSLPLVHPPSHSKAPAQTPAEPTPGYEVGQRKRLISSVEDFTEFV
UniProt P50548: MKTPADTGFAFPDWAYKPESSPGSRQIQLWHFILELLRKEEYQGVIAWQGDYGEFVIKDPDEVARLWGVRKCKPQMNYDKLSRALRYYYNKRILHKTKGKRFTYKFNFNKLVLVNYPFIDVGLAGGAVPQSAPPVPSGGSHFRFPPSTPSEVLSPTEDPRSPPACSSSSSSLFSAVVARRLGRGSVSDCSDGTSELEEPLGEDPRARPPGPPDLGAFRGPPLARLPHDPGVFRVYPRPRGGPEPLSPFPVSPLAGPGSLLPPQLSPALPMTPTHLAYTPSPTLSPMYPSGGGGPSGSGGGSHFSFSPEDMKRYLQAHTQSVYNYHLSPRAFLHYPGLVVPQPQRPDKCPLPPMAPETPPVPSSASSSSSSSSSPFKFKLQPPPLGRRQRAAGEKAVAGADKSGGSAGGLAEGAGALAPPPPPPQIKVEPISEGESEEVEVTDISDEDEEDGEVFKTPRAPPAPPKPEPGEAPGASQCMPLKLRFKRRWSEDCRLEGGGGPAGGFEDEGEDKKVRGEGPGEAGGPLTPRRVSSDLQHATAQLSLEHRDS
UniProt P48723: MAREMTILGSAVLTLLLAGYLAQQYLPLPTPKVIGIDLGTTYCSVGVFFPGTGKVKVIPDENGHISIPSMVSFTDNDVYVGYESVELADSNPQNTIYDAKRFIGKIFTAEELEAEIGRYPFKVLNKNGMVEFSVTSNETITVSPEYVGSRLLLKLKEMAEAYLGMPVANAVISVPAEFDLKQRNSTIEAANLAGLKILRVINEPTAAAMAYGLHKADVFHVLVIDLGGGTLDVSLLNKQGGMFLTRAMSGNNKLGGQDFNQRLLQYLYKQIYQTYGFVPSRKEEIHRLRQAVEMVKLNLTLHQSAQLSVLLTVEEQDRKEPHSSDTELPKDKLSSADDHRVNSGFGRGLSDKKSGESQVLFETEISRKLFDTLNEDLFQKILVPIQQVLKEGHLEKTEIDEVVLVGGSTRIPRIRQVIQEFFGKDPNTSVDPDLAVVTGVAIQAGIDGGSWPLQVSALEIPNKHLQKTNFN
UniProt P50613: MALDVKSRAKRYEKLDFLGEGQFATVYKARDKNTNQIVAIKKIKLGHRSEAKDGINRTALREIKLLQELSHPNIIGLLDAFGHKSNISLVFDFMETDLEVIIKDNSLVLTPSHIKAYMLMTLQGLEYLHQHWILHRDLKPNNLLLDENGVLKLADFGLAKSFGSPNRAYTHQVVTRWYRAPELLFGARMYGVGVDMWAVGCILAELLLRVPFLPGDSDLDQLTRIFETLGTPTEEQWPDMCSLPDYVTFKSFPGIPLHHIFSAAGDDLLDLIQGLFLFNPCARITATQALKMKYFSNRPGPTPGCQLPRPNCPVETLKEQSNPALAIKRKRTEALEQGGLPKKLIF
UniProt P40616: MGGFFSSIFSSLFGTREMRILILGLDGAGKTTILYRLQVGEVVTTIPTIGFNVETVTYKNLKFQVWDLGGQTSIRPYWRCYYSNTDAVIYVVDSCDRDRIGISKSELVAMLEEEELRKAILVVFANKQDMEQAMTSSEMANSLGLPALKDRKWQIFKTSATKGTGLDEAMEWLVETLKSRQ
UniProt P48730: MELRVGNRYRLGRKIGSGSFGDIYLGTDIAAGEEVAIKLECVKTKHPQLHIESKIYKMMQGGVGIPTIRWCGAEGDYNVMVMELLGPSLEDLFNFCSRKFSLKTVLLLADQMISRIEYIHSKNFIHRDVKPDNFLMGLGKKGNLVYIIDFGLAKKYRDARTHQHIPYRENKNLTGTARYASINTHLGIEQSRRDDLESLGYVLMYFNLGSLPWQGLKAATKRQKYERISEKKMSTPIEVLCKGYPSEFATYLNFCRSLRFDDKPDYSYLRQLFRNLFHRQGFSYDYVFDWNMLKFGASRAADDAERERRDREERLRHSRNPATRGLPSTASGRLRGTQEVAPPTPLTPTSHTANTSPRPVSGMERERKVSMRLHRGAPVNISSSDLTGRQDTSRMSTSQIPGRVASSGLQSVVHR
UniProt P51452: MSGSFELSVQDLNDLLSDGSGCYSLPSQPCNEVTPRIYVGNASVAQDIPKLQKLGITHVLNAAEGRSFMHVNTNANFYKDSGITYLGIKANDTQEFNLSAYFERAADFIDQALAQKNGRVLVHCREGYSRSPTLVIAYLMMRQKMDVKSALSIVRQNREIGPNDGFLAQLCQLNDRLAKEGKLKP
UniProt P40939: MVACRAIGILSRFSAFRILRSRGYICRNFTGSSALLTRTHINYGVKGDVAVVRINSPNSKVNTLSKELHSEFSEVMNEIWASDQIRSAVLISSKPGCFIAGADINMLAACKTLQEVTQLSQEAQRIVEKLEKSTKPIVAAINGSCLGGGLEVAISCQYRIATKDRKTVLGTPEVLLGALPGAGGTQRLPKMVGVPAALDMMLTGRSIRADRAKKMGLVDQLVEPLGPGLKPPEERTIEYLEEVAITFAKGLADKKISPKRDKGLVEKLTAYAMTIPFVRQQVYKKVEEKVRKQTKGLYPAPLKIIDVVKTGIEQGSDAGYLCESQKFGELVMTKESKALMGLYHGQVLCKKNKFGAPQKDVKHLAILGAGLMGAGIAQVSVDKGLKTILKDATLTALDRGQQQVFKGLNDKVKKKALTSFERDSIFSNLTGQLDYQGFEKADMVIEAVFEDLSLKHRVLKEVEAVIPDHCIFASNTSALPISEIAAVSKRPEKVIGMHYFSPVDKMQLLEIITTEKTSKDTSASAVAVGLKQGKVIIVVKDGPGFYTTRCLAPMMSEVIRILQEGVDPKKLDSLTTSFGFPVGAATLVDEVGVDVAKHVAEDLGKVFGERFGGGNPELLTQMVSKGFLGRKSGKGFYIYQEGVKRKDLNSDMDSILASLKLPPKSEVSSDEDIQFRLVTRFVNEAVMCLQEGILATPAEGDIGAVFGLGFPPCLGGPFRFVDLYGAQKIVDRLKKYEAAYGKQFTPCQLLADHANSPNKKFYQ
UniProt P49748: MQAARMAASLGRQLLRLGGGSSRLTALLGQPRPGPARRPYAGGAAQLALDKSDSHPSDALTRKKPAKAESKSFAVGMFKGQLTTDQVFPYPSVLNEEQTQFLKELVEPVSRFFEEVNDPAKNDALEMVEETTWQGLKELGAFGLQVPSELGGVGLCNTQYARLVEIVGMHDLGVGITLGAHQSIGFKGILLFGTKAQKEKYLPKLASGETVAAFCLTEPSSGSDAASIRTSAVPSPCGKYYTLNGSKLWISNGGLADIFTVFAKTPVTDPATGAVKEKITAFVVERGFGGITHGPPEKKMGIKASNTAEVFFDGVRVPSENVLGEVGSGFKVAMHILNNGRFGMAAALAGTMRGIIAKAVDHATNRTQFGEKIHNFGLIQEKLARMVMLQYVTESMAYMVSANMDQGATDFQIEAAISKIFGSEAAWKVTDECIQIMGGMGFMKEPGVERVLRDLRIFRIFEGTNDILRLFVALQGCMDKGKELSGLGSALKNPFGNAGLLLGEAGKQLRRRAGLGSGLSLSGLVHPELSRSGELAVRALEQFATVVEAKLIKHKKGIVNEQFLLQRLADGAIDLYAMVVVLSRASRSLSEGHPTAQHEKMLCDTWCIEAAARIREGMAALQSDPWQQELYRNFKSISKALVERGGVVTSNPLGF
UniProt P51665: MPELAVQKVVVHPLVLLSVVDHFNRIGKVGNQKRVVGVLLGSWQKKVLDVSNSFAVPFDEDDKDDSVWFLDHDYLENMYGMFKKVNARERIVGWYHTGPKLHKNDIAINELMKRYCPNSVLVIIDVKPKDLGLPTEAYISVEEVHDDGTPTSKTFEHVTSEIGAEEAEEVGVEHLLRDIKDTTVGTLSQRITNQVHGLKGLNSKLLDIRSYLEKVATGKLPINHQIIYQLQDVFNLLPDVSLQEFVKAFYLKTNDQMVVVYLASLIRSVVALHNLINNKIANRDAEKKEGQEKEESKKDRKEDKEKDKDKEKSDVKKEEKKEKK
UniProt P48960: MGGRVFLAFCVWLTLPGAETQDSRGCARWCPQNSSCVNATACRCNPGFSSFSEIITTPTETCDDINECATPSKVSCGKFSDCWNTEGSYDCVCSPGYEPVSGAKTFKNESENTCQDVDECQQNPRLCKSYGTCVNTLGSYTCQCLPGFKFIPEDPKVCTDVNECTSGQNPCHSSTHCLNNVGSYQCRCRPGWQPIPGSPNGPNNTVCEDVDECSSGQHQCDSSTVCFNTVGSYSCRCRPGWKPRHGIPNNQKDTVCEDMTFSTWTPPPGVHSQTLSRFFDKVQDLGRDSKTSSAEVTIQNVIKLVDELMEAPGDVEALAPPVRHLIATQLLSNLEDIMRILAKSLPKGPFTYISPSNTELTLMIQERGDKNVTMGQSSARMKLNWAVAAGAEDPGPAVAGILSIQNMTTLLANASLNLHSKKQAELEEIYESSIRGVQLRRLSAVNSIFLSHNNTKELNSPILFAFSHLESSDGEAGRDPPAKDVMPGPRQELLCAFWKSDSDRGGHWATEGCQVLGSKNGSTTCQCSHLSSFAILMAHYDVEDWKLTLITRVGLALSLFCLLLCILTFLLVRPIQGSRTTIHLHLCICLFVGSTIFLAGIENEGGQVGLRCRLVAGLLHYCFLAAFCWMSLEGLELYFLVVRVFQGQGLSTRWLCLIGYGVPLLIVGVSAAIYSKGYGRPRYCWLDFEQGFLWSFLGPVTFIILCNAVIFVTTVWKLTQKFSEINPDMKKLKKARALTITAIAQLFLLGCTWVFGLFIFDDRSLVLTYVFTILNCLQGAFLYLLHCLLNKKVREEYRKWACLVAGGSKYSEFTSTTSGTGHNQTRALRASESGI

compound: CCc1cnccc1C(=O)Nc1cc2c(cc1F)NC(=O)CC2; assay: melting temperature shift (DMSO Tm minus MBE1-treated Tm) in cellular thermal proteome profiling; higher = less thermal stabilization by MBE1 (negative = stabilized by MBE1); conditions: A375; MBE1 concentration: 100 nM

Target	melting temperature shift
PPOX (UniProt P50336)	0.403 °C
MCM2 (UniProt P49736)	0.189 °C
IDH3A (UniProt P50213)	0.168 °C
TSC2 (UniProt P49815)	-1 °C
UniProt P42568	1.62 °C
UniProt P50548	0.983 °C
EIF2S3 (UniProt P41091)	-0.997 °C
HSPA13 (UniProt P48723)	-1.58 °C
UniProt P49750	-0.519 °C
UniProt P40426	0.256 °C
UniProt P50613	0.324 °C
ALDH3B1 (UniProt P43353)	1.23 °C
PEX5 (UniProt P50542)	-0.952 °C
EPS15 (UniProt P42566)	0.91 °C
SERPINB8 (UniProt P50452)	-0.684 °C
CENPF (UniProt P49454)	-1.86 °C
ARL1 (UniProt P40616)	-0.508 °C
IQGAP1 (UniProt P46940)	0.629 °C
UniProt P48730	-0.496 °C
BUD31 (UniProt P41223)	0.318 °C
DUSP3 (UniProt P51452)	0.629 °C
HADHA (UniProt P40939)	1.01 °C
SLC19A1 (UniProt P41440)	-0.142 °C
GARS (UniProt P41250)	-1.47 °C
ACADVL (UniProt P49748)	-1.23 °C
AARS (UniProt P49588)	-0.437 °C
DDOST (UniProt P39656)	-0.758 °C
PSMD7 (UniProt P51665)	0.382 °C
PSEN1 (UniProt P49768)	0.201 °C
SMARCA4 (UniProt P51532)	-0.243 °C

same assay, conditions: A375; MBE1 concentration: 1 uM

Target	melting temperature shift
PPOX (UniProt P50336)	1.03 °C
MCM2 (UniProt P49736)	0.0488 °C
IDH3A (UniProt P50213)	-0.396 °C
TSC2 (UniProt P49815)	-0.282 °C
UniProt P50548	-0.446 °C
EIF2S3 (UniProt P41091)	0.0604 °C
MCAM (UniProt P43121)	-1.85 °C
HSPA13 (UniProt P48723)	0.0045 °C
UniProt P49750	-0.436 °C
UniProt P40426	0.336 °C
UniProt P50613	0.508 °C
PEX5 (UniProt P50542)	-0.5 °C
EPS15 (UniProt P42566)	0.605 °C
SERPINB8 (UniProt P50452)	0.838 °C
ACAA2 (UniProt P42765)	-2.17 °C
CENPF (UniProt P49454)	-2.61 °C

Target	melting temperature shift
ARL1 (UniProt P40616)	0.959 °C
IQGAP1 (UniProt P46940)	0.421 °C
BUD31 (UniProt P41223)	0.647 °C
DUSP3 (UniProt P51452)	-0.495 °C
HADHA (UniProt P40939)	0.464 °C
UniProt P48380	-0.837 °C
GARS (UniProt P41250)	-1.3 °C
ACADVL (UniProt P49748)	-0.702 °C
UniProt P43005	-2.29 °C
AARS (UniProt P49588)	0.464 °C
DDOST (UniProt P39656)	0.228 °C
PSMD7 (UniProt P51665)	0.419 °C
PRRC2A (UniProt P48634)	-3.27 °C
CD97 (UniProt P48960)	-1.86 °C
YAP1 (UniProt P46937)	-5.59 °C
SMARCA4 (UniProt P51532)	-0.275 °C
